Laboratory results as given in paper PMC12142535.
No constants are given. Whether binding was seen depends on the method and setting. In cells and extracts the contact can be indirect. Some results given as binding are weak or reduced against the parent protein; the word gives no strength.

Chains of the proteins cited; added tags and fusions are not shown. Residues count along the entry.
UniProt P52480: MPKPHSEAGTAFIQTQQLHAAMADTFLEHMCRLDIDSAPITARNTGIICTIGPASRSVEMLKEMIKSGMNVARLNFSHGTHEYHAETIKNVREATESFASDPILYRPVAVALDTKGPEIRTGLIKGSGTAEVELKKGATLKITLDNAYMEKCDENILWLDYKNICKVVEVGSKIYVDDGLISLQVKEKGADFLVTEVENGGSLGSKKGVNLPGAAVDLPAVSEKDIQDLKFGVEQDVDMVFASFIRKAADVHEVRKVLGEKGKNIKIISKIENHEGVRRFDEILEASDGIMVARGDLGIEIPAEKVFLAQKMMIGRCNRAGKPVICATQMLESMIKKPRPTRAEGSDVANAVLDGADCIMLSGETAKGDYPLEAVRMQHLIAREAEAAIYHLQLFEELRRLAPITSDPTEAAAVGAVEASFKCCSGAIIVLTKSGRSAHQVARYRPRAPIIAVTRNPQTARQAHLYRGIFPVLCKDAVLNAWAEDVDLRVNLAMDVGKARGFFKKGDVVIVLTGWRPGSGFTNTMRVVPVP
UniProt P14618: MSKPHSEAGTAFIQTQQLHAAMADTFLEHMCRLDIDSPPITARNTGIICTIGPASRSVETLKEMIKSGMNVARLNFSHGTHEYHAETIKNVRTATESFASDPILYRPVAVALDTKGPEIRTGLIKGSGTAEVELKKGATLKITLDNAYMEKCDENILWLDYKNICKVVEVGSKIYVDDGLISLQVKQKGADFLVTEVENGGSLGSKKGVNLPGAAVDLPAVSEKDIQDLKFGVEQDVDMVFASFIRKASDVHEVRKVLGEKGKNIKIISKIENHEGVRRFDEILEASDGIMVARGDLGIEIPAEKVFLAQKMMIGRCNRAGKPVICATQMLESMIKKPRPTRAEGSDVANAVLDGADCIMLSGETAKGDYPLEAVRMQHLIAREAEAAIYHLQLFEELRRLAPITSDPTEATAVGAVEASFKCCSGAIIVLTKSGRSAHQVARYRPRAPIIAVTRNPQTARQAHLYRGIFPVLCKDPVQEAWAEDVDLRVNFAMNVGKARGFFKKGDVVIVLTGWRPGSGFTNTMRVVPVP
UniProt P38647, residues 47-679: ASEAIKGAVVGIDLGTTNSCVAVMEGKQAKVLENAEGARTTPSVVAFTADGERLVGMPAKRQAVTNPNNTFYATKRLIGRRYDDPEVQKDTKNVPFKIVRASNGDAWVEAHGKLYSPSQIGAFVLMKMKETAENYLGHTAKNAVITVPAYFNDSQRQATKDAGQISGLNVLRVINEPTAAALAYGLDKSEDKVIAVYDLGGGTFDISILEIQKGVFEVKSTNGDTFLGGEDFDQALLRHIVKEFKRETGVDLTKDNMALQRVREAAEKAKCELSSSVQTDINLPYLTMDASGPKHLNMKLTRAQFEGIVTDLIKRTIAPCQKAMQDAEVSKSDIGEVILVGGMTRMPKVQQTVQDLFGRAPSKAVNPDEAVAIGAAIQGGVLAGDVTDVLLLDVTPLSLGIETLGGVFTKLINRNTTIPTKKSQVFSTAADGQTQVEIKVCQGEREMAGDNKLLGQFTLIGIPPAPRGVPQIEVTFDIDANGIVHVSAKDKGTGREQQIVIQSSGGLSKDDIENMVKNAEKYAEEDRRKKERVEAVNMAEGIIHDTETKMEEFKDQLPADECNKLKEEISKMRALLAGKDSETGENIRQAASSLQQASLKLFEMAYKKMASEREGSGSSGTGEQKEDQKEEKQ
UniProt P38646, residues 47-679: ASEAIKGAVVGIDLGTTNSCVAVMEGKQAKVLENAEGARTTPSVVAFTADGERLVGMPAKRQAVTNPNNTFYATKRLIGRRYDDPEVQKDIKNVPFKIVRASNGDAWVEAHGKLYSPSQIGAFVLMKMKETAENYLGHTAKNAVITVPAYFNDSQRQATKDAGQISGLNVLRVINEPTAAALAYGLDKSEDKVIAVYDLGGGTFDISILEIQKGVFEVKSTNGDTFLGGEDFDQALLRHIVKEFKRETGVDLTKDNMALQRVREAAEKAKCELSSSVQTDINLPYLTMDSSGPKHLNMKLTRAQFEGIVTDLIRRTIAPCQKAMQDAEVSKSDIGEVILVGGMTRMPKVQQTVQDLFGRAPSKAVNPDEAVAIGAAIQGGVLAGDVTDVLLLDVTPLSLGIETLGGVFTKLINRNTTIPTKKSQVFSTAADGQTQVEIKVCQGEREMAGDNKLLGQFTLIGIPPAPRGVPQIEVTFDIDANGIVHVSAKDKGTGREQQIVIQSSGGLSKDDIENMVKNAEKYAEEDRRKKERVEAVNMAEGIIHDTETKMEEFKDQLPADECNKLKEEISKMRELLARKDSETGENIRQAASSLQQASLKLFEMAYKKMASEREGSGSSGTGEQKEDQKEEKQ

Legend:
[1] = target: pyruvate kinase muscle 2 (PKM2), mouse (mouse (endogenous in peritoneal macrophages)) (UniProt P52480); test: co-IP; lysates of murine peritoneal macrophages (20 ug/ml oxLDL) or HMDMs (50 ug/ml oxLDL) treated for the indicated periods; precleared, about 1 mg protein with anti-PKM2 overnight at 4 C, A/G agarose beads, immunoblot of GRP75 or UQCRC1
[2] = target: pyruvate kinase muscle 2 (PKM2), human (human (endogenous in HMDMs)) (UniProt P14618); test: as above
[3] = target: pyruvate kinase muscle 2 (PKM2), mouse (mouse (endogenous in peritoneal macrophages)) (UniProt P52480); test: proximity ligation; fixed macrophages with or without 20 ug/ml oxLDL for 24 h; rabbit anti-PKM2 and mouse anti-UQCRC1, species-specific secondary antibodies with DNA strands; confocal microscopy
[4] = target: pyruvate kinase muscle 2 (PKM2), mouse (mouse (endogenous in peritoneal macrophages)) (UniProt P52480); test: co-IP; lysates of murine peritoneal macrophages (20 ug/ml oxLDL) or HMDMs (50 ug/ml oxLDL) treated for the indicated periods; precleared, about 1 mg protein with anti-PKM2 overnight at 4 C, A/G agarose beads, immunoblot of GRP75 or UQCRC1; remark: listed apart in the source

Molecule: GRP75, mouse (from UniProt P38647 47-679)
- binding [1]: binds

Molecule: GRP75, human (from UniProt P38646 47-679)
- binding [2]: binds

B1: UQCRC1, a subunit of ETC complex III, mouse (protein, UniProt Q9CZ13 35-480)
chain: TATFAQALQSVPETQVSILDNGLRVASEQSSHATCTVGVWIDAGSRYETEKNNGAGYFLEHLAFKGTKNRPGNALEKEVESIGAHLNAYSTREHTAYLIKALSKDLPKVVELLADIVQNSSLEDSQIEKERDVILREMQENDASMQNVVFDYLHATAFQGTPLAQAVEGPSENVRRLSRTDLTDYLNRHYKAPRMVLAAAGGVEHQQLLDLAQKHLSSVSRVYEEDAVPGLTPCRFTGSEIRHRDDALPLAHVAIAVEGPGWANPDNVTLQVANAIIGHYDCTYGGGVHLSSPLASVAVANKLCQSFQTFNISYSDTGLLGAHFVCDAMSIDDMVFFLQGQWMRLCTSATESEVTRGKNILRNALVSHLDGTTPVCEDIGRSLLTYGRRIPLAEWESRIQEVDAQMLRDICSKYFYDQCPAVAGYGPIEQLPDYNRIRSGMFWLRF
- binding [3]: binds
- binding [4]: binds
